{"source": "paper PMC11667670", "biological_target": "VldE^MT3 domain (Spr1875^MT3), residues 266-380 (Streptococcus pneumoniae) (UniProt Q8DN78)", "assay": "AUC; sedimentation velocity, 48 krpm, 20 °C, 20 mM Tris-HCl pH 7.4, 150 mM NaCl, protein at 0.05 μM as printed, absorbance at 280 nm; single peak at s20,w 1.797 S (100%); both purified", "note": "Results are given in words; binding and its absence hold for the method and conditions named.", "data": [{"substance": "VldE^MT3 domain (Spr1875^MT3), residues 266-380 (from UniProt Q8DN78 266-380) (domain or fragment)", "values": [{"measurement": "binding", "value": "no binding (tested: 0.05 μM)"}]}]}
